Measured data: PubChem BioAssay AID686943 (Drosophila RNAi Screening Center, 2013)

Screen: 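Knockdowns that increase or decrease active ERK after insulin receptor stimulation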 (primary screen)
Cell system: Drosophila S2R+ haemocyte-like cells expressing YFP-tagged ERK (Rolled)
Reagent: long dsRNA against Drosophila genes
Conditions: insulin stimulation versus unstimulated cells; dose and duration not given
Measured: 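Per-plate z-scores of phospho-ERK immunostaining normalised to YFP-tagged ERK, measured with and without insulin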
Direction: replicate 1, z-score of dpERK with insulin and replicate 2, z-score of dpERK with insulin: higher = more active ERK per ERK-YFP after insulin
The screen tested about 23,000 reagents; this is an unselected part of those with a known target gene and a result. 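Extra replicates exist only for a retested subset of genes; insulin dose and duration not given; both raised and lowered dpERK matter.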 A plus sign joins genes that one reagent is predicted to hit. Not all columns of the deposit are shown. Not given: the amount of reagent, the time to read-out.

target | dsRNA | replicate 1, z-score of dpERK with insulin | replicate 2, z-score of dpERK with insulin
CG7882 (GeneID 35520) | DRSC04899 | 0.64 | 0.84
CG8476 (GeneID 41624) | DRSC16426 | -0.11 | 0.31
whd (GeneID 36109) | DRSC07351 | 0.27 | -0.05
CG2209 (GeneID 32250) | DRSC19843 | -0.05 | 0.25
Pten (GeneID 43991) | DRSC03402 | -2.97 | -2.35
Pfas (GeneID 33847) | DRSC03480 | 0.47 | 0.3
fog (GeneID 33148) | DRSC20646 | 0.5 | -0.66
asRNA:CR42743 + CG34162 | DRSC01190 | 0.79 | 0.19
scramb1 (GeneID 326186) | DRSC09724 | -0.29 | -0.7
scramb1 (GeneID 326186) | DRSC10667 | 0.46 | 0.16
scramb1 (GeneID 326186) | DRSC10668 | -0.08 | -0.17
hook (GeneID 35169) | DRSC03545 | -0.36 | 0.16
sle + CG12592 | DRSC21387 | -0.46 | -0.57
Pits (GeneID 32205) | DRSC19385 | -0.39 | -0.01
Pits (GeneID 32205) | DRSC19812 | 0.31 | 0.48
Acsf3 (GeneID 31668) | DRSC18146 | -0.71 | 1.58
x16 (GeneID 33967) | DRSC00960 | 2.08 | -0.21
x16 (GeneID 33967) | DRSC03638 | 0.11 | 0.92
Ir7c (GeneID 31692) | DRSC18007 | -0.42 | -0.44
Mfe2 (GeneID 32582) | DRSC19869 | -0.3 | 0.38
CG3309 (GeneID 31450) | DRSC18301 | -0.07 | -0.26
jp (GeneID 34274) | DRSC02213 | 0.16 | 0.26
jp (GeneID 34274) | DRSC02744 | 0.53 | 0.04
Ctl2 (GeneID 43440) | DRSC14423 | -0.14 | 0.09
SERCA (GeneID 49297) | DRSC04600 | 0.85 | 0.76
Lcp65Ac (GeneID 38708) | DRSC11210 | -0.36 | -0.17
CG12229 (GeneID 39945) | DRSC09868 | 0.13 | 0.21
CG12016 + Dpm2 | DRSC08224 | -1.31 | 1.05
Obp83cd (GeneID 40746) | DRSC12267 | 0.21 | -0.79
mRpL35 (GeneID 42588) | DRSC14586 | -0.13 | -0.68
Klp54D (GeneID 47216) | DRSC07450 | 0.2 | 0.8
CG10903 (GeneID 40952) | DRSC14281 | -0.32 | -0.57
CG6204 (GeneID 42877) | DRSC15991 | 0.12 | 0.57
Rpt6 (GeneID 33105) | DRSC20571 | -0.38 | 0.05
CG42792 (GeneID 10178946) | DRSC01515 | 1.17 | 0.44
CG10514 (GeneID 43052) | DRSC14249 | -0.39 | -0.29
CG13526 (GeneID 37613) | DRSC04168 | 0.32 | 1.42
CG31174 (GeneID 318616) | DRSC13518 | 0.72 | 0.03
CG5835 (GeneID 42296) | DRSC15886 | 0.09 | 0.29
scpr-B (GeneID 41357) | DRSC15200 | 0.27 | -0.1
slx1 (GeneID 40578) | DRSC12290 | 0.56 | -0.04

Next part, starting with the last 2 of the part before.
target | dsRNA | replicate 1, z-score of dpERK with insulin | replicate 2, z-score of dpERK with insulin
scpr-B (GeneID 41357) | DRSC15200 | 0.27 | -0.1
slx1 (GeneID 40578) | DRSC12290 | 0.56 | -0.04
Hel89B (GeneID 41943) | DRSC16700 | 0.94 | 0.41
Hel89B (GeneID 41943) | DRSC21575 | -0.23 | -0.03
Coq4 + frc | DRSC10381 | -1.15 | -0.24
Coq4 + frc | DRSC10382 | -0.52 | -0.68
CG14837 (GeneID 38849) | DRSC10207 | -0.7 | -0.43
CG13008 (GeneID 32654) | DRSC19527 | -0.06 | 0.54
CG13008 (GeneID 32654) | DRSC19528 | 0.03 | 0.29
CG34232 (GeneID 5740195) | DRSC05332 | -2.7 | -3.27
EMC2B + EMC2A | DRSC15241 | 1.59 | 0.52
CG4968 (GeneID 34384) | DRSC02794 | -0.36 | 0.65
e(y)3 (GeneID 32965) | DRSC19450 | -0.1 | -0.61
Cog4 (GeneID 34442) | DRSC03057 | 1.25 | 0.97
CG15221 (GeneID 32127) | DRSC19659 | 0.58 | 0.4
byn (GeneID 39349) | DRSC11332 | -0.08 | 0.18
CG13117 (GeneID 34289) | DRSC02215 | 0.15 | 0.38
Bgb (GeneID 38198) | DRSC08148 | -0.67 | -0.43
CG12728 (GeneID 31526) | DRSC17883 | 0.46 | -1.09
Nadk1a (GeneID 36506) | DRSC05431 | -0.16 | 0.28
Nadk1a (GeneID 36506) | DRSC06963 | -0.08 | -0.38
Elba1 (GeneID 33669) | DRSC00276 | -0.06 | 0.9
CG1764 (GeneID 32281) | DRSC19779 | 0.59 | 0.83
trbd (GeneID 41179) | DRSC16494 | -1.32 | -0.95
CG7031 (GeneID 42704) | DRSC16178 | -0.49 | -1.88
CG13244 (GeneID 34940) | DRSC21642 | -0.05 | 0.68
CG31867 (GeneID 261614) | DRSC03338 | -0.29 | -0.97
CG33627 (GeneID 3772219) | DRSC05343 | 0.06 | 0.48
lute (GeneID 42089) | DRSC14812 | -0.92 | 0.3
lute (GeneID 42089) | DRSC15769 | 0.09 | -0.01
Tasp1 (GeneID 39757) | DRSC10495 | -0.19 | -0.01
CG30037 (GeneID 246409) | DRSC07305 | -0.2 | 0.08
CG33514 (GeneID 3346239) | DRSC08471 | -0.22 | -1.02
CG33514 (GeneID 3346239) | DRSC08472 | 0.59 | -0.45
CG33514 (GeneID 3346239) | DRSC21670 | 0.52 | -0.14
